Reference: the supplement of paper PMC10849652
This is one part of the list.

By UniProt entry, the sequences of proteins in these tests, tags left out. Where a name states a change or a piece, a line headed by the entry shows the natural chain unless it says otherwise.
UniProt Q06413, whole entry, looked up: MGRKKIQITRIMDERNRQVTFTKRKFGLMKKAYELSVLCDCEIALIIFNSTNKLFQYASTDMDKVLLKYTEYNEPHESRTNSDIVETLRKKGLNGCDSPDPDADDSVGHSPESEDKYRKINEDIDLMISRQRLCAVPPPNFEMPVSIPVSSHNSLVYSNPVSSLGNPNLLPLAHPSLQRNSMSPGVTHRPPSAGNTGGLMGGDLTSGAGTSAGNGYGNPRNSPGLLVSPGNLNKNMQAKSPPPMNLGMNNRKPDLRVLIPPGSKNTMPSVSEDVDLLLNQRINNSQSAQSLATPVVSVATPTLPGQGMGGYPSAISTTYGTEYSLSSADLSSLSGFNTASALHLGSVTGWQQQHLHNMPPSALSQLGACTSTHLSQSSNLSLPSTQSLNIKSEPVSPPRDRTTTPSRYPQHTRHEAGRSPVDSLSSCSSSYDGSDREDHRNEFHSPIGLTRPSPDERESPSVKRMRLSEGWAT
UniProt Q6UX53: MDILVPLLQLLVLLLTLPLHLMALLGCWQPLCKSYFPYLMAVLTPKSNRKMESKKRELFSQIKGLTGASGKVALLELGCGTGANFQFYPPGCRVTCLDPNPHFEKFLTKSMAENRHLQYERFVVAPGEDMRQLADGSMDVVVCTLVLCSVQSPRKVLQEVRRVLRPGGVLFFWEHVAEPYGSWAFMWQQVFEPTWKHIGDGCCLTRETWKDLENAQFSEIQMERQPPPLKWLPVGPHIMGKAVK
UniProt Q02078: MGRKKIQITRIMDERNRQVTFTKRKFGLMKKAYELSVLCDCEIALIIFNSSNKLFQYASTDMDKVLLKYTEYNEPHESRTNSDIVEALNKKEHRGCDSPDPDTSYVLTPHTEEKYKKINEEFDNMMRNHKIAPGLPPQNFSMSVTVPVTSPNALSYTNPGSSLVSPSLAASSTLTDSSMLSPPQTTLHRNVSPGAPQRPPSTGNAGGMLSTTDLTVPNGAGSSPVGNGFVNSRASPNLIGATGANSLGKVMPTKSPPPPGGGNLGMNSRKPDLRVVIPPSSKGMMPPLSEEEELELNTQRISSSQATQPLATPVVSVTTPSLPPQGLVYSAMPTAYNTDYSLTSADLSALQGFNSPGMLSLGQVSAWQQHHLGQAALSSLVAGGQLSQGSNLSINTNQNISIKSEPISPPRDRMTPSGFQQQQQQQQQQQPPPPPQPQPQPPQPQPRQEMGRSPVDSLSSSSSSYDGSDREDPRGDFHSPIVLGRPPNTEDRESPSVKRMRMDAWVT
UniProt O75586: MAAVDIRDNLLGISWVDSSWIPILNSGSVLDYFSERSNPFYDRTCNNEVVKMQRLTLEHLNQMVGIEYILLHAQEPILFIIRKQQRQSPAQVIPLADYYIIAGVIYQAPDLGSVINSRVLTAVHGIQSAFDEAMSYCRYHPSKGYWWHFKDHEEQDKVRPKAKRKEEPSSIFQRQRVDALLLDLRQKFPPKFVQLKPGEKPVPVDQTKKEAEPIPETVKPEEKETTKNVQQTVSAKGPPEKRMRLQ
UniProt Q9BUT9: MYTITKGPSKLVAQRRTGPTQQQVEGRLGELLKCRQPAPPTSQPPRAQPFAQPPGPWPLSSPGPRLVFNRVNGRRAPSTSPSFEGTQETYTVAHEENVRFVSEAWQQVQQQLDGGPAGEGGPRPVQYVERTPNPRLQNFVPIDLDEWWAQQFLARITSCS
UniProt Q9GZU1, whole entry, looked up: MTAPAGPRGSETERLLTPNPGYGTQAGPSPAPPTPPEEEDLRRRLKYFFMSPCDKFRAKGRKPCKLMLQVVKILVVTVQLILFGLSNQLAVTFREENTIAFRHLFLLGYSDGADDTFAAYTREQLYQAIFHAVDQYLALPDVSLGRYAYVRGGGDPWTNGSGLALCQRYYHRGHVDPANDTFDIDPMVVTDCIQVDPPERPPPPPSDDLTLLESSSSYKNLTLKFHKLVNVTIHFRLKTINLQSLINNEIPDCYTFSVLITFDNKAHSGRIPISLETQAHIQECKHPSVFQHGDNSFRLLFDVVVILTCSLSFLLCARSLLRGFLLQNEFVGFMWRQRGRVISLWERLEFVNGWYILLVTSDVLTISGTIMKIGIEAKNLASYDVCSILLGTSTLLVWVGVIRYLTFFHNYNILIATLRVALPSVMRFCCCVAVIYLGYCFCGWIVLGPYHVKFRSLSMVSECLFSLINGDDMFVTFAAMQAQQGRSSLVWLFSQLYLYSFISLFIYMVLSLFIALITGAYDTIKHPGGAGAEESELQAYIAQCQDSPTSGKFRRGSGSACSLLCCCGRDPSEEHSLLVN
UniProt A0JLT2: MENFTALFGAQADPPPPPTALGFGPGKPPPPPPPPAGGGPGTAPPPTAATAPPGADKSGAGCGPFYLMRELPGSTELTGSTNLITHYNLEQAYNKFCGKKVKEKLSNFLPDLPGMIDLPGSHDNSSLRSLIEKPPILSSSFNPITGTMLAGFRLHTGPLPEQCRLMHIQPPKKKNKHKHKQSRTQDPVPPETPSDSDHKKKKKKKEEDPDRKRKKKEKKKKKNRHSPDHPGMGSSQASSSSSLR
UniProt Q9NR56: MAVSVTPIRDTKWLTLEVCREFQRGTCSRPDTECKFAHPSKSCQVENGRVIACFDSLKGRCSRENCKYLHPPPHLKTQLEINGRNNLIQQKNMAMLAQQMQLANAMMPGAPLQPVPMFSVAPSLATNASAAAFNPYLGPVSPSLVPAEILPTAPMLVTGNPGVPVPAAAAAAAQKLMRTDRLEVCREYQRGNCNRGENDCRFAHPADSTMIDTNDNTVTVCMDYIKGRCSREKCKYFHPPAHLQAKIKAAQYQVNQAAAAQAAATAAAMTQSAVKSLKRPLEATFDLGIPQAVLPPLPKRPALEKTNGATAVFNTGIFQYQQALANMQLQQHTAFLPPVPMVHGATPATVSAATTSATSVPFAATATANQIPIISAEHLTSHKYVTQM
UniProt Q71F56: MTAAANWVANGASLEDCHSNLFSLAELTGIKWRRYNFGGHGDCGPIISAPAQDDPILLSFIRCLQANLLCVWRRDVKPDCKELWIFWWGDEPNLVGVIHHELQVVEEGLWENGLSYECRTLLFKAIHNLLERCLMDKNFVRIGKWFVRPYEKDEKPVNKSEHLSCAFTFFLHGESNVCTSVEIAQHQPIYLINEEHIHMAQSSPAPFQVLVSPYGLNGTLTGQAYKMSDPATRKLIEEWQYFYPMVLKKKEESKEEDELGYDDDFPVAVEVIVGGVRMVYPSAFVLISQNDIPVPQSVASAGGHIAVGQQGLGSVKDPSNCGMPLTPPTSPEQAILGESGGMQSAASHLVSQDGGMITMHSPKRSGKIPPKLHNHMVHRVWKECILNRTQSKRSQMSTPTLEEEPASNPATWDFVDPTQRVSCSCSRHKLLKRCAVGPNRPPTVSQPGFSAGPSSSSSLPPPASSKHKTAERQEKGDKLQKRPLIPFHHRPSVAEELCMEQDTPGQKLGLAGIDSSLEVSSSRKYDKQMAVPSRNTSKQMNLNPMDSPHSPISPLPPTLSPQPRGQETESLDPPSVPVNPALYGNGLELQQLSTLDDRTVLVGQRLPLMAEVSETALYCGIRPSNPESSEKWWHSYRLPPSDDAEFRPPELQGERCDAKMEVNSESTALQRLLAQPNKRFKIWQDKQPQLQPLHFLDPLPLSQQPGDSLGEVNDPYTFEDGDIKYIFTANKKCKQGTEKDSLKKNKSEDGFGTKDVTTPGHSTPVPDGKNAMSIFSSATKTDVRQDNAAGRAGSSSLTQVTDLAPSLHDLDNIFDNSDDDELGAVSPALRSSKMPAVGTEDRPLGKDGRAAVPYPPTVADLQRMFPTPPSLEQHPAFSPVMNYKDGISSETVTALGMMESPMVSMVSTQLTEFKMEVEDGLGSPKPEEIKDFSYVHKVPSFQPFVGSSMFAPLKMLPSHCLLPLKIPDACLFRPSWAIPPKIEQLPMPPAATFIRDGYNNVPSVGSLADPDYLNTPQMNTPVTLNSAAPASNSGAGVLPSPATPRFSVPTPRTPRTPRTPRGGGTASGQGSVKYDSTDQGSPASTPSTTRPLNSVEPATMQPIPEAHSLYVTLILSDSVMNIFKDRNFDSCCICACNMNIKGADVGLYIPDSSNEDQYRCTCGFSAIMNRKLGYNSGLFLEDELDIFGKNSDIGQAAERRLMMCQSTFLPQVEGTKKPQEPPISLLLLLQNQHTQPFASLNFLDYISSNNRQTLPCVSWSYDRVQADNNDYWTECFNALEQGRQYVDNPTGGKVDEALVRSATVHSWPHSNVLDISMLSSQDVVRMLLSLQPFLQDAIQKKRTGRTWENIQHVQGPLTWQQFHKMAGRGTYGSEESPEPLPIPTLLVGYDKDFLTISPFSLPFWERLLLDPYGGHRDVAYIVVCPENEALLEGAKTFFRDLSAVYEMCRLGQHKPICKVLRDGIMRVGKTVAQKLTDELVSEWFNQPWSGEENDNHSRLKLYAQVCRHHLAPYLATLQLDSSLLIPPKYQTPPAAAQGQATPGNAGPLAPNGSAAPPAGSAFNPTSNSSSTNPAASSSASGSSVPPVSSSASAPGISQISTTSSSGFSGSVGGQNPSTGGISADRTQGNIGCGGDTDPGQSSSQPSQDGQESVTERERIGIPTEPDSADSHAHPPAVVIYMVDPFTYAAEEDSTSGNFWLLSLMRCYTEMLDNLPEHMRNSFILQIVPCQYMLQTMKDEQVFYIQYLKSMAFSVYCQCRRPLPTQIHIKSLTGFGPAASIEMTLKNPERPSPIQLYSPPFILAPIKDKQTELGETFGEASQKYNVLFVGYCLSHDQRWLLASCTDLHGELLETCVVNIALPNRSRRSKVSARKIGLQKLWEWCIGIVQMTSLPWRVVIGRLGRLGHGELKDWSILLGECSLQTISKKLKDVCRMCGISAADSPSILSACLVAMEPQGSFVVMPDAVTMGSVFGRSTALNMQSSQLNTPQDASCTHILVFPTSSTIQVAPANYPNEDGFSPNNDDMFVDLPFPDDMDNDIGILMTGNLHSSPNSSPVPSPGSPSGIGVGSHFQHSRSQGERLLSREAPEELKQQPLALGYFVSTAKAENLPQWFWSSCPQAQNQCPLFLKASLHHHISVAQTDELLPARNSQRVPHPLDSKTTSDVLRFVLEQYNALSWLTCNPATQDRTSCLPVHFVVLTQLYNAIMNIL
UniProt O43462: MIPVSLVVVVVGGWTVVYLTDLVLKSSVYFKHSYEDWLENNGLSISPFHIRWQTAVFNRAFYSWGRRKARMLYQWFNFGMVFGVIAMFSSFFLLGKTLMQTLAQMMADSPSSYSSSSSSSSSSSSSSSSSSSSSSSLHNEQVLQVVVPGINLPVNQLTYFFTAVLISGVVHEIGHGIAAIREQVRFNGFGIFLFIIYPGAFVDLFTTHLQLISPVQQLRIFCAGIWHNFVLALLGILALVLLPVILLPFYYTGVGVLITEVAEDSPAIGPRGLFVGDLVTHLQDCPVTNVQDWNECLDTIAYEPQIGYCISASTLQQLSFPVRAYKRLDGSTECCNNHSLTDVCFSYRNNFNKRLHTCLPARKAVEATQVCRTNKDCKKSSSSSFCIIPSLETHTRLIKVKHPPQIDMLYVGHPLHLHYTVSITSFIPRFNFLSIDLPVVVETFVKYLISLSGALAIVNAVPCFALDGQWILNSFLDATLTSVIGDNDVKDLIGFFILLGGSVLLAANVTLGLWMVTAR
UniProt Q14680: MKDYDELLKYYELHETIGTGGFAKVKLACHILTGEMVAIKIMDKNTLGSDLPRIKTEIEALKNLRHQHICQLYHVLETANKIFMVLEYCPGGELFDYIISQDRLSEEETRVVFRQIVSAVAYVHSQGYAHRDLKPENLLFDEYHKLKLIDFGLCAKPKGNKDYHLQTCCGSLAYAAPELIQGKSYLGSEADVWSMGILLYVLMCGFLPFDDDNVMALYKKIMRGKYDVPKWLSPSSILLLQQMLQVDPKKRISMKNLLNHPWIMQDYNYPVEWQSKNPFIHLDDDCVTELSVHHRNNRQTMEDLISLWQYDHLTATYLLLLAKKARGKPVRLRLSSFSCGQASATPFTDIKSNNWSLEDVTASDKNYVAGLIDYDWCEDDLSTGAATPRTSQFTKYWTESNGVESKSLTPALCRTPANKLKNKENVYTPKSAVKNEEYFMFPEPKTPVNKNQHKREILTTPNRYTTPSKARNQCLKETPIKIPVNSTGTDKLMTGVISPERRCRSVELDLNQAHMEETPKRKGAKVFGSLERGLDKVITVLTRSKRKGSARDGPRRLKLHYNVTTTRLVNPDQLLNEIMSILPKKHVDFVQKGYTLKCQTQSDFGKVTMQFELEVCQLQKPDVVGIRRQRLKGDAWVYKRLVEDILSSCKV
UniProt A4D2B0: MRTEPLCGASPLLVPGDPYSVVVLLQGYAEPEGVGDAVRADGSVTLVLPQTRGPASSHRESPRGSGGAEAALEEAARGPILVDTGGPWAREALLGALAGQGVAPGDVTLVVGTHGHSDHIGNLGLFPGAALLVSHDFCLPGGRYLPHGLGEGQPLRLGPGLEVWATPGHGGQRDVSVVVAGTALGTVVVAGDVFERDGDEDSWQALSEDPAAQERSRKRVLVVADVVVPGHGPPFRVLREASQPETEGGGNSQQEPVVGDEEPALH

compound: O=C1NC(=O)C(c2cnc3ccccn23)=C1c1cn2c3c(cc(F)cc13)CN(C(=O)N1CCCCC1)CC2; assay: log2 fold change, soluble protein after heating vs DMSO (PISA); higher = thermal stabilisation; K562 cells, 10 uM, 30 min; active = over 0.2 and 3.5 SD of the protein, either way, in both replicates (recomputed)
Procedure, shortened: (§1)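 K562 cells at 2×10^6 cells/mL were given 10 μM compound for 30 min. Aliquots then went through 3 min of heating across 48°C-58°C, were pooled, and were extracted in PBS with 0.5% NP-40 at 4°C, and the supernatant after 21,000xg for 90 min was quantified by TMTpro 16plex LC-MS/MS with channel sums equalised. Thermal stability relative to control samples, from duplicates, is given as log2 fold change.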

log2 fold change, inactive:
MEF2C isoform 2 (UniProt Q06413) 0.207
METTL7B (UniProt Q6UX53) 0.096
MEF2A (UniProt Q02078) 0.036
MED6 (UniProt O75586) 0.128
MCRIP2 (UniProt Q9BUT9) -0.029
MFSD8 (UniProt Q8NHS3) -0.007
MCOLN1 (UniProt Q9GZU1) 0.273
MED19 (UniProt A0JLT2) 0.276
METTL15 (UniProt A6NJ78) -0.279
MFAP3 (UniProt P55082) -0.243
MBNL1 isoform 5 (UniProt Q9NR56) 0.025
MED13L (UniProt Q71F56) -0.036
MCM10 (UniProt Q7L590) 0.134
MED7 (UniProt O43513) -0.085
MBTPS2 (UniProt O43462) -0.246
MELK (UniProt Q14680) -0.016

compound: c1cc(OCCN2CCCCC2)cc(-c2n[nH]c3ccc(-c4nnc[nH]4)cc23)c1; assay: as above
Procedure, shortened: as §1

log2 fold change, inactive:
MEF2C isoform 2 (UniProt Q06413) 0.008
MEF2A (UniProt Q02078) -0.174
MFSD12 isoform 3 (UniProt Q6NUT3) -0.162
MED6 (UniProt O75586) 0.137
MCOLN3 (UniProt Q8TDD5) 0.159
MCRIP2 (UniProt Q9BUT9) -0.05
METTL26 (UniProt Q96S19) 0.043
MFSD8 (UniProt Q8NHS3) -0.129
MED9 (UniProt Q9NWA0) -0.111
MCOLN1 (UniProt Q9GZU1) 0.006
MED19 (UniProt A0JLT2) -0.053
MEGF8 (UniProt Q7Z7M0) 0.103
MBNL1 isoform 5 (UniProt Q9NR56) 0.041
MCM10 (UniProt Q7L590) 0.107
MED31 (UniProt Q9Y3C7) -0.169
MBLAC1 (UniProt A4D2B0) -0.067
MELK (UniProt Q14680) -0.366
MED21 (UniProt Q13503) -0.021
